Measured values as given in paper doi:10.1101/181180.

T1: Spp1-TAP (S. cerevisiae (SK1)) (UniProt Q03012)
T1 sequence: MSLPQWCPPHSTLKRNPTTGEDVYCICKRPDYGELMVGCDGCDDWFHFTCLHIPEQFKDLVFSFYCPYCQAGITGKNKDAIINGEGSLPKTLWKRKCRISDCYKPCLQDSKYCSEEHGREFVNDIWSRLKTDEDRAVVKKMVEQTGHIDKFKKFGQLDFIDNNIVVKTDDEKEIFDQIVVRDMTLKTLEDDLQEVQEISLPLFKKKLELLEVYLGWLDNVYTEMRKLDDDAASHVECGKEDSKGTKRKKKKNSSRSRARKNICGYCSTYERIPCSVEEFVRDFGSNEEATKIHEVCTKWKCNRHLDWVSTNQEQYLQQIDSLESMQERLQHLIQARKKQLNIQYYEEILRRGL

T2: Mer2-TAP (S. cerevisiae (SK1)), P21651
T2 chain: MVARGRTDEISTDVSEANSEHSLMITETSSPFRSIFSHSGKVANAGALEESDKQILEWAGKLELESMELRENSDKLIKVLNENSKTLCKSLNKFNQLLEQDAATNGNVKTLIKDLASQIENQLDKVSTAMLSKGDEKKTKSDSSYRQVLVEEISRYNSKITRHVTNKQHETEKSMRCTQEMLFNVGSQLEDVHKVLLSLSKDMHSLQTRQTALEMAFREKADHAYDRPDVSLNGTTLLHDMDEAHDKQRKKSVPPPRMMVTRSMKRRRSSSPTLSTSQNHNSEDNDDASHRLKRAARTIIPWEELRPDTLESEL

T3: Mer2-TAP (S. cerevisiae (SK1)) (UniProt P21651)
T3 sequence: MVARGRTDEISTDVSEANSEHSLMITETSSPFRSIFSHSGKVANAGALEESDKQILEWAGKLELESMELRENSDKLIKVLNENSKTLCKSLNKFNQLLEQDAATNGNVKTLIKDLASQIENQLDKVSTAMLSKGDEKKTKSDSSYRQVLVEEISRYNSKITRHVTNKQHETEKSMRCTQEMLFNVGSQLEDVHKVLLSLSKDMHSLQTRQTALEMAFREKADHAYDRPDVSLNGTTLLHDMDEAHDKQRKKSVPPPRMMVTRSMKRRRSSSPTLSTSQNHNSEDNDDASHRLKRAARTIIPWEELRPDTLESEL


Assays:
Assay in all cases: affinity purification with mass spectrometry
[1] = target: T1, Spp1-TAP (S. cerevisiae (SK1))
[2] = target: T2, Mer2-TAP (S. cerevisiae (SK1)), P21651; conditions: remark: other sources report otherwise
[3] = target: T3, Mer2-TAP (S. cerevisiae (SK1))

Binder | binding [2] | binding [3] | also measured
Mer2 (protein, UniProt P21651 1-314) MVARGRTDEISTDVSEANSEHSLMITETSSPFRSIFSHSGKVANAGALEESDKQILEWAGKLELESMELRENSDKLIKVLNENSKTLCKSLNKFNQLLEQDAATNGNVKTLIKDLASQIENQLDKVSTAMLSKGDEKKTKSDSSYRQVLVEEISRYNSKITRHVTNKQHETEKSMRCTQEMLFNVGSQLEDVHKVLLSLSKDMHSLQTRQTALEMAFREKADHAYDRPDVSLNGTTLLHDMDEAHDKQRKKSVPPPRMMVTRSMKRRRSSSPTLSTSQNHNSEDNDDASHRLKRAARTIIPWEELRPDTLESEL | – | – | binding [1]: binds
Mei4, P29467 1-408 (protein) MSRGKLEDMEQKETSEVDWIICFALIQSRNPTLWKRALSRKKGDVEDVGALKSEKNLKINPRENSKHIYKWVAPFENGFLNNKSLFAHLEPIYNFLCQNKYKSFEDAVGLKELQSFSKDVSTADINNWFLPRYKILLKILSLKTKEIDFRGLSQVFQTLQILLVSHYSHRIDSDSSFKRTLIDVHVFNFIAKFLFNRILLKKNQNDPKWLQNFYDQGDGKHLCDKVDYKRLCSLHFTLIYSIINIQLIKIKTNQTFEPQILKYVSVLKLIEHILIIIESLIHVLIRFVSKHKLICINRKKAYCRVYLERELSLKKTYLKNFYSVISGVPEKELGGLLKILKIVILSLLETFESIEWQHLKPFLEKFPAHEISLQKKRKYIQAALLITAERNLIARFRLSRWFNETENI | no binding | – | –

The next lines start with results.

binding [2] | binding [3] | Binder | also measured
no binding | – | Rec114, P32841 1-428 (protein) MYEYCSVVIKKYSKYTIPSFAPNGFQSMLEPPQIDKWQHLSANCTLQFRVLLMDSRQILINVVLNNSTLLENIRLPLGDNQDLIQFSCKSPIISCKYISEEFGPRMLRRFQMNLPNDVEFNRTVVSLKNLNFVLRTARTSIAQSTITSQVQGNNNGTKVCFTEGPKVSSYTNPNTQFQTQNMIMDFSQRYQEESERESNNRSNITLPHDSIQIAQQIWPNTDLNVVQSSQDLNTPMATQTVLGRPESLIVQPLEVSQSPPNTTNCLPNAENKKKKVDTTSDFTSRKEIALCKTGLLETIHIPKERESQMQSVTGLDATPTIIWSPGKDNTAKKNTSNKKNIDDKLTNPQKSGNTHTPDRNKEVLPNGTLNETRKEASPSEGLTIRVKNVNRNASRKISKRLIKEKLKDEEFMKWVNKVETVLNKMFEK | –
– | binds | Spp1 (protein, UniProt Q03012 1-353) MSLPQWCPPHSTLKRNPTTGEDVYCICKRPDYGELMVGCDGCDDWFHFTCLHIPEQFKDLVFSFYCPYCQAGITGKNKDAIINGEGSLPKTLWKRKCRISDCYKPCLQDSKYCSEEHGREFVNDIWSRLKTDEDRAVVKKMVEQTGHIDKFKKFGQLDFIDNNIVVKTDDEKEIFDQIVVRDMTLKTLEDDLQEVQEISLPLFKKKLELLEVYLGWLDNVYTEMRKLDDDAASHVECGKEDSKGTKRKKKKNSSRSRARKNICGYCSTYERIPCSVEEFVRDFGSNEEATKIHEVCTKWKCNRHLDWVSTNQEQYLQQIDSLESMQERLQHLIQARKKQLNIQYYEEILRRGL | –
– | no binding | Swd1 (protein, UniProt P39706 1-426) MNILLQDPFAVLKEHPEKLTHTIENPLRTECLQFSPCGDYLALGCANGALVIYDMDTFRPICVPGNMLGAHVRPITSIAWSPDGRLLLTSSRDWSIKLWDLSKPSKPLKEIRFDSPIWGCQWLDAKRRLCVATIFEESDAYVIDFSNDPVASLLSKSDEKQLSSTPDHGYVLVCTVHTKHPNIIIVGTSKGWLDFYKFHSLYQTECIHSLKITSSNIKHLIVSQNGERLAINCSDRTIRQYEISIDDENSAVELTLEHKYQDVINKLQWNCILFSNNTAEYLVASTHGSSAHELYIWETTSGTLVRVLEGAEEELIDINWDFYSMSIVSNGFESGNVYVWSVVIPPKWSALAPDFEEVEENVDYLEKEDEFDEVDEAEQQQGLEQEEEIAIDLRTREQYDVRGNNLLVERFTIPTDYTRIIKMQSS | –

These are yes or no findings as the source states them, for the method shown. In cells and extracts the contact can be indirect. A yes stands for co-enrichment or nearness to the bait. Other partners may have been found. For some assays here: A no says only that the protein was not detected with the bait.
